Results are given in words; binding and its absence hold for the method and conditions named. In cells and extracts the contact can be indirect. Some binding calls cover weakened binding; strength is not graded here.
How the values were obtained:
[1] = target: T1, HSF4 (mouse (endogenous in NIH-3T3)) (UniProt Q9R0L1); assay: proximity ligation; Duolink in situ PLA in fixed, permeabilised NIH-3T3 cells before and after UV induction; signal when the two proteins are ≤40 nm apart
T1 sequence: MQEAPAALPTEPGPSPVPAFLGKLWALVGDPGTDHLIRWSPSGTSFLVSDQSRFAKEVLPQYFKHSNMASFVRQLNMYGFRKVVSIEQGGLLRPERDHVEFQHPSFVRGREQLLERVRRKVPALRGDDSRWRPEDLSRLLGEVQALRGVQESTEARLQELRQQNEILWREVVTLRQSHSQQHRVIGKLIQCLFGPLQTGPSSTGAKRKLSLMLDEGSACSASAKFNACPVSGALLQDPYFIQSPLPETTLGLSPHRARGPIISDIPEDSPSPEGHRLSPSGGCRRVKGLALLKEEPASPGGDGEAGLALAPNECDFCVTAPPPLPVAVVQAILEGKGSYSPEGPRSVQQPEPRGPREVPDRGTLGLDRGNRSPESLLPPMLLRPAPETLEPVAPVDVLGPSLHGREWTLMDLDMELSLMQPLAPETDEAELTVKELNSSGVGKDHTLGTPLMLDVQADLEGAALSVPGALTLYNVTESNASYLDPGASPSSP

Protein sequences, listed by entry. Tags and fused reporters are not part of them.
UniProt Q5SU73: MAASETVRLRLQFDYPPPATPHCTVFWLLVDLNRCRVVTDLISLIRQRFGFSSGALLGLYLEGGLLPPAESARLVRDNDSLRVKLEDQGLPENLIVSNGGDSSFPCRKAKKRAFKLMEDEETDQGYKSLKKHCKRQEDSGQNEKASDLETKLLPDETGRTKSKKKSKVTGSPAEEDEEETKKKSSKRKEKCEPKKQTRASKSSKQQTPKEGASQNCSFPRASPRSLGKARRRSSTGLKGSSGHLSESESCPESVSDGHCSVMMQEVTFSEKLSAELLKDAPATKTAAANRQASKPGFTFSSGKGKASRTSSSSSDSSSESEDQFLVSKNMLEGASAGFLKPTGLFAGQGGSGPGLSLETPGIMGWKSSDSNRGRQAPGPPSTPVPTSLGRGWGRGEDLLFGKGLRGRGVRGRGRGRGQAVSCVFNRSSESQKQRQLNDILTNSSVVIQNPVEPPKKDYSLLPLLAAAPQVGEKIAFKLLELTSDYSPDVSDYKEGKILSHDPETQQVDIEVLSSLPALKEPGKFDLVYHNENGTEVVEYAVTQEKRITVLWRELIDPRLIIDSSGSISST

[2] = target: T1, HSF4 (mouse (endogenous in NIH-3T3)); assay: co-IP; NIH-3T3 cells after UV induction; protein A/G beads with specific antibody or IgG, incubated with cell lysate overnight; Western blot
[3] = target: T1, HSF4 (mouse (endogenous in NIH-3T3)); assay: co-IP; NIH-3T3 cells under normal conditions (without UV); protein A/G beads with specific antibody or IgG, incubated with cell lysate overnight; Western blot

COIL (coilin) (from UniProt Q5SU73 1-570)
binding [1]: binds | binding [2]: binds | binding [3]: no binding (condition: cells without UV irradiation)

From article PMC10352565
